Experimental data as given in paper PMC9236257.
Read-outs that look alike come from different tables or passages of the source. These are yes or no findings as the source states them, for the method shown. In cells and extracts the contact can be indirect. These calls come from enrichment with a bait or labelling near it, and not all partners need be listed. For some of these results: A no says only that the protein was not detected with the bait. For some of these results: Tags and fused reporters may be left off the sequences shown.

Chains of the proteins cited; added tags and fusions are not shown. Lines headed by an entry give the natural chain unless they say otherwise; changes in a name come on top.
UniProt Q385I5: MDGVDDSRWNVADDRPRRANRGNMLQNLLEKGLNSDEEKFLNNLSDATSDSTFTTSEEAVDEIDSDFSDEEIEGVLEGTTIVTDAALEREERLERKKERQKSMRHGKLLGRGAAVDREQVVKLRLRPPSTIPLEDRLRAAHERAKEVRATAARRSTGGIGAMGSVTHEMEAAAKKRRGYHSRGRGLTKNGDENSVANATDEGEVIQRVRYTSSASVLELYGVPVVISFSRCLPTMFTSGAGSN
UniProt Q57UN4: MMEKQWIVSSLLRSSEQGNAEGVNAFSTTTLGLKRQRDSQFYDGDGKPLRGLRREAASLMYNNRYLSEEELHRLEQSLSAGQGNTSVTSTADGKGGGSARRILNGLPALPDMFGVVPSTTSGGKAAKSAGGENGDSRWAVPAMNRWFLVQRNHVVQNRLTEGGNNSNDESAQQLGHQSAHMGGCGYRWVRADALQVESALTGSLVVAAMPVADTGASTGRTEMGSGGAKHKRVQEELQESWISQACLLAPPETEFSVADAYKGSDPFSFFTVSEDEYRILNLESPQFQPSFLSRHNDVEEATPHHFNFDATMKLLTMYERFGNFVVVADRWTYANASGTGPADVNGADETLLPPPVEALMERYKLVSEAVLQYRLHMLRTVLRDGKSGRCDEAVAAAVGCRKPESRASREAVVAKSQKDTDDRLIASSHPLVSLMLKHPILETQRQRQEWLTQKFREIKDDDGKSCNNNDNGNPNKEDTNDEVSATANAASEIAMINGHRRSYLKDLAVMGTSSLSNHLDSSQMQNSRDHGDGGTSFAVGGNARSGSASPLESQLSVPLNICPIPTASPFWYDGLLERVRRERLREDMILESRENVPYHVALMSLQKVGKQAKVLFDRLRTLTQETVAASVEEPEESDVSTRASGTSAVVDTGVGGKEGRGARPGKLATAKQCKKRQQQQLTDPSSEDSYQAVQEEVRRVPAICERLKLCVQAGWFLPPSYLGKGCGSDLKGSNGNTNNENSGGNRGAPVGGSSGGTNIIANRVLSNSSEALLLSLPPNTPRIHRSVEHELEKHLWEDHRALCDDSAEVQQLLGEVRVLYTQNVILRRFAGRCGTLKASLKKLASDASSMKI
UniProt Q38FN2: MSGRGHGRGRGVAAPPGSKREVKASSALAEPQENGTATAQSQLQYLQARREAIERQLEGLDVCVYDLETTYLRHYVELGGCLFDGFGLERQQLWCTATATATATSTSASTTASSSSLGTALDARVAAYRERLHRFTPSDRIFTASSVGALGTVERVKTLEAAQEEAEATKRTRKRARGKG
UniProt Q583J3: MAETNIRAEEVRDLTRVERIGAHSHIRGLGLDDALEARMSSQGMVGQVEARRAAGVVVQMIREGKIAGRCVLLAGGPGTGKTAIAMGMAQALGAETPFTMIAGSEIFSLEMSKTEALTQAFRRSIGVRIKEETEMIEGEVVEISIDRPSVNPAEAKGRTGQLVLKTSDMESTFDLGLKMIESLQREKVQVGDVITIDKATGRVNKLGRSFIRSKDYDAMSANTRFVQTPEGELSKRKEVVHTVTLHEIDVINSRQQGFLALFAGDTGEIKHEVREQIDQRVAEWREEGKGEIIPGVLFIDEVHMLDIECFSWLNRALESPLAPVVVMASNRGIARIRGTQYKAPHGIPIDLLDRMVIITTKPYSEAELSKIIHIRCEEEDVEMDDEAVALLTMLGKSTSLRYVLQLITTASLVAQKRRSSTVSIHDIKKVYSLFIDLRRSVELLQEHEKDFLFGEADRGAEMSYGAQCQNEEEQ
UniProt Q580C6: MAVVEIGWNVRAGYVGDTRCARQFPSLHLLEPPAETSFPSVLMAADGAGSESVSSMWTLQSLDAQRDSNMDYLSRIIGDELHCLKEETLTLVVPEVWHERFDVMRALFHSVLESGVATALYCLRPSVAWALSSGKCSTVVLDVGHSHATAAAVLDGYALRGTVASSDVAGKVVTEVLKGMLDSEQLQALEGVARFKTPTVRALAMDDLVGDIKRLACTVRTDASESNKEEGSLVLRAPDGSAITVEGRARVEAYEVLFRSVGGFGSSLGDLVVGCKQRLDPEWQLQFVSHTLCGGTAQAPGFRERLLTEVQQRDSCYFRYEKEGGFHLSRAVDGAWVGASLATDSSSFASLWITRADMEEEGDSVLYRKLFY
UniProt Q383S2: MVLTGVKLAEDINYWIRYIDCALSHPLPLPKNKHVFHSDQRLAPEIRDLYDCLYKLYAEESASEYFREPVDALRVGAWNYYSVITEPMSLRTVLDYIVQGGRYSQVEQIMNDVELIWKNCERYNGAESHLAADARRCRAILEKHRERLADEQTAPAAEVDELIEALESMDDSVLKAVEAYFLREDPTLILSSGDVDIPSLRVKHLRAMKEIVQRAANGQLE
UniProt Q38AD3: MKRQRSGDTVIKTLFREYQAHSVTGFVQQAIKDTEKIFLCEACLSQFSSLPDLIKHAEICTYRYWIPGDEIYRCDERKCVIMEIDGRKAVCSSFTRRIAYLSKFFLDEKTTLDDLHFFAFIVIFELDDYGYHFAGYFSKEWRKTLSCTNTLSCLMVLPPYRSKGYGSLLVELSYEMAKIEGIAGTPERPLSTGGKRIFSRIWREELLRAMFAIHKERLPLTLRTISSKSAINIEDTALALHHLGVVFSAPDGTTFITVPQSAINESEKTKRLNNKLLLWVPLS
UniProt Q581V4: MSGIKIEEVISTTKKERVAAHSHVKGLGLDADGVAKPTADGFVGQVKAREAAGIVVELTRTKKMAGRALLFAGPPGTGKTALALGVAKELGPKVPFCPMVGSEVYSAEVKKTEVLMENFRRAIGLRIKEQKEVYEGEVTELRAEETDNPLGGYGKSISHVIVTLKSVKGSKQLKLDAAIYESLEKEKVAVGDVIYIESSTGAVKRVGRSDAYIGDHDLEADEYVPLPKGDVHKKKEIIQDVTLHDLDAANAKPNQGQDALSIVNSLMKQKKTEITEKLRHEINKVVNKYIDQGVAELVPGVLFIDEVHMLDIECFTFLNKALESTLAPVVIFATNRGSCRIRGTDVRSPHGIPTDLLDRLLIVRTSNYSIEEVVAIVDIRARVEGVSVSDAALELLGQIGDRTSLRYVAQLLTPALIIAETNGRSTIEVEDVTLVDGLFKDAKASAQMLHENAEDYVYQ
UniProt Q580M8: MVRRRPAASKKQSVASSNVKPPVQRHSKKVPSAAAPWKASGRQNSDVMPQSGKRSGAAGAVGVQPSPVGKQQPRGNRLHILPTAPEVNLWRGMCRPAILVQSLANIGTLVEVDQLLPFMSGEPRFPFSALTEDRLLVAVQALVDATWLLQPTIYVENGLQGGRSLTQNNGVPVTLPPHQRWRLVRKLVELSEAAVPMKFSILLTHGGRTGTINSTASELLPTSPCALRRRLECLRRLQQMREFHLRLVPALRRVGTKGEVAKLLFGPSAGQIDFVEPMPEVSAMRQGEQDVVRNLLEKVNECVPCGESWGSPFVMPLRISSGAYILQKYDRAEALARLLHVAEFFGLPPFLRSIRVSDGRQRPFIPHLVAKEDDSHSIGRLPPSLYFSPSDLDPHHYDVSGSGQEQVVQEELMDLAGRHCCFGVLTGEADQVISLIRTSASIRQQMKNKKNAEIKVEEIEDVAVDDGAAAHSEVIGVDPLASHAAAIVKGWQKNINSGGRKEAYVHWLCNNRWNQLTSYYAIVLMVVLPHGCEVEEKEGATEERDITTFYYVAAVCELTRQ
UniProt Q388I3: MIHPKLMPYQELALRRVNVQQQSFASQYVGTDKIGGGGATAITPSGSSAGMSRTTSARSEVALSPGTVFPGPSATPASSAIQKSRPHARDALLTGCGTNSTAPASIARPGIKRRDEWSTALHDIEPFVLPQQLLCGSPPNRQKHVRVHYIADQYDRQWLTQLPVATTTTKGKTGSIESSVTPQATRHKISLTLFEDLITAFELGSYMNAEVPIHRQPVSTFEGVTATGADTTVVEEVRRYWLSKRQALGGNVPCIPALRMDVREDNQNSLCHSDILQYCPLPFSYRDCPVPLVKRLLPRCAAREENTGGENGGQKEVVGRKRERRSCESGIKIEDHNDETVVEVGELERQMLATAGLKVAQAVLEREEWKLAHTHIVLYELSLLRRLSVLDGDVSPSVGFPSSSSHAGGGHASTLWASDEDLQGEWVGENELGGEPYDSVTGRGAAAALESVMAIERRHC
UniProt Q584P9: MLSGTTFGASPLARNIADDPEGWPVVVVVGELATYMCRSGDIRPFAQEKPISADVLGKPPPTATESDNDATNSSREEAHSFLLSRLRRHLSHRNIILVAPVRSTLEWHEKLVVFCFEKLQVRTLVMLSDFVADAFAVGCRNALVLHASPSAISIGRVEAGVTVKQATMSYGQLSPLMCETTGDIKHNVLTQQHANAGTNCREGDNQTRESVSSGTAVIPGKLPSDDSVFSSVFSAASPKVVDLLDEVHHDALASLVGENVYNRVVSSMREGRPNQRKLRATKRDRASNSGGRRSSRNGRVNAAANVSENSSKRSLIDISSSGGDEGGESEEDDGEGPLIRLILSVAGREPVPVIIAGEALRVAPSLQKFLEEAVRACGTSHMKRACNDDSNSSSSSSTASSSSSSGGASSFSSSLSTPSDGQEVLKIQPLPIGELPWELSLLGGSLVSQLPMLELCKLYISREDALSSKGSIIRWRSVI
UniProt Q57YH0: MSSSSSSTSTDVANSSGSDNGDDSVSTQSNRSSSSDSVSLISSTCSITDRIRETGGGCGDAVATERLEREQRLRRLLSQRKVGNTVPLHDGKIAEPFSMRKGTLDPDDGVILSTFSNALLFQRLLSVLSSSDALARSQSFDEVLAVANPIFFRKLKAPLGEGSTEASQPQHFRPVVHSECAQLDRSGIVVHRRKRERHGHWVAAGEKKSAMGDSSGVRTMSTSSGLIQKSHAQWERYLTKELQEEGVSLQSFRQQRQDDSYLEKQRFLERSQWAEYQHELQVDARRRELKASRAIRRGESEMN
UniProt Q385E0: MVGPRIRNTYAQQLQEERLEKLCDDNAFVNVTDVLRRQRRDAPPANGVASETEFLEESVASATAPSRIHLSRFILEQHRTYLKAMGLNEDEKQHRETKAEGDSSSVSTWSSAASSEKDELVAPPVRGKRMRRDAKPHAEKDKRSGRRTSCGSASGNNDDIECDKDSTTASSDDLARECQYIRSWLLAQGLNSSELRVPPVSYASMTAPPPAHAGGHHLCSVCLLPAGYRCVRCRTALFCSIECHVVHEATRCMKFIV
UniProt D6XIY7: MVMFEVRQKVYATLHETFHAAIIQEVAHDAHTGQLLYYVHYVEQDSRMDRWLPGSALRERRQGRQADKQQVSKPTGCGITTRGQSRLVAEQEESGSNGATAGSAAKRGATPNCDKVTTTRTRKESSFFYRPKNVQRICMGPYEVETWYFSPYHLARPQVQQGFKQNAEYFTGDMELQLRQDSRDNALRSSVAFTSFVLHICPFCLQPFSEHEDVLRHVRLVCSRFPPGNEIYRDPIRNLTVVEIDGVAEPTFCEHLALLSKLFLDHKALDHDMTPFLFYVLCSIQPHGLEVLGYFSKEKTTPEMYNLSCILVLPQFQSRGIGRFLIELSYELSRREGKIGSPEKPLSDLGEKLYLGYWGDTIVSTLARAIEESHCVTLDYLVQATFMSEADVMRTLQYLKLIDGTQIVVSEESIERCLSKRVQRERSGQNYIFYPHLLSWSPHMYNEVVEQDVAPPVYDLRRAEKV
UniProt Q585C3: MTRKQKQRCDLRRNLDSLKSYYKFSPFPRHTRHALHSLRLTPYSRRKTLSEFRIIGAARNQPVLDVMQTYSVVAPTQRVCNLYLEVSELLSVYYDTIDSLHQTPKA
UniProt Q57ZF8: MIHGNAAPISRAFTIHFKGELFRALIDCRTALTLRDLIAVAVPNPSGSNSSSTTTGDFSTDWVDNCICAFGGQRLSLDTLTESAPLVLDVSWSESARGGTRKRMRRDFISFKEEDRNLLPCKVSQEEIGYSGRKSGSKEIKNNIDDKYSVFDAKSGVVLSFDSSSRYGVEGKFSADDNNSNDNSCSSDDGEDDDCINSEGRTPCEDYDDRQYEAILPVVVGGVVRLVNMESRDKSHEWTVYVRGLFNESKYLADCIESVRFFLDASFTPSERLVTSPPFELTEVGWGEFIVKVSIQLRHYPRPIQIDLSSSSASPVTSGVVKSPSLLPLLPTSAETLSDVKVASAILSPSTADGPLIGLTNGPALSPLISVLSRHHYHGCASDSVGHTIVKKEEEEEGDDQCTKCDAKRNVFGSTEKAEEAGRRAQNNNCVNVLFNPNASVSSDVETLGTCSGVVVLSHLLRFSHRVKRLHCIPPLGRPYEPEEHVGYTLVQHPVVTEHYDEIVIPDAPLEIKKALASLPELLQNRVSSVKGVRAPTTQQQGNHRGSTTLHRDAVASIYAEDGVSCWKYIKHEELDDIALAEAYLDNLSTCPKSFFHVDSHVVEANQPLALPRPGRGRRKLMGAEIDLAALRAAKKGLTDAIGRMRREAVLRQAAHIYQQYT

T1: tagged Tb927.1.650 (Eaf3/MORF4 homologue), bait of the reciprocal co-IP (Trypanosoma brucei) (UniProt Q4GZG2)
T1 sequence: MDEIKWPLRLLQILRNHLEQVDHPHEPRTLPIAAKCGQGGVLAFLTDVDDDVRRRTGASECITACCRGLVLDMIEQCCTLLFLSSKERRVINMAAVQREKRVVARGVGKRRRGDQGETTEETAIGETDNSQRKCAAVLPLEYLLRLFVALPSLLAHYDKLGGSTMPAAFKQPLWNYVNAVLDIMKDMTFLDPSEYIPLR


Assays:
Assay in all cases: affinity purification with mass spectrometry; soluble fraction of 1x10^8 sonicated T. brucei cells with the tagged bait in IP buffer (150 mM NaCl, 0.5% IGEPAL CA-630, 20 mM Tris-HCl pH 8.0, 10 mM MgCl2, 1 mM DTT) on Protein G Sepharose beads coupled to anti-HA 12CA5 or anti-Ty1 BB2, 3 h at 4°C; eluates by label-free quantitative MS, four biological replicates against a WT control
[1] = molecular target: HA-TbSWRC2 (Tb927.11.5830) (Trypanosoma brucei) (UniProt Q385I5)
[2] = molecular target: TbSWRC4-HA (Tb927.7.4040) (Trypanosoma brucei) (UniProt Q57UN4)
[3] = molecular target: HA-HAT2 (Tb927.11.11530) (Trypanosoma brucei) (UniProt Q383C5)
[4] = molecular target: T1, tagged Tb927.1.650 (Eaf3/MORF4 homologue), bait of the reciprocal co-IP (Trypanosoma brucei)
[5] = molecular target: tagged Tb927.9.2910 (annotated as a NuA4 subunit), bait of the co-IP (Trypanosoma brucei) (UniProt Q38FN2)
[6] = molecular target: HA-tagged RuvB2 (Tb927.4.2000) (Trypanosoma brucei) (UniProt Q583J3)
[7] = molecular target: tagged Tb927.9.2910 (annotated as a NuA4 subunit), bait of the co-IP (Trypanosoma brucei) (UniProt Q38FN2); remark: listed apart in the source

| Molecule | binding [1] | binding [2] | binding [4] | binding [5] | binding [6] | other results |
| --- | --- | --- | --- | --- | --- | --- |
| Actin (Tb927.4.980) (from UniProt Q580C6) | binds | binds | – | – | – | – |
| Bdf3 (Tb927.11.10070) (from UniProt Q383S2) | – | – | – | – | – | binding [3]: binds |
| HAT3 (from UniProt Q38AD3) (enzyme) | – | – | no binding | binds | – | – |
| RuvB1 (Tb927.4.1270) (from UniProt Q581V4) | binds | binds | – | – | – | – |
| Tb927.3.4140 (from UniProt Q580M8) | – | – | – | – | – | binding [3]: binds |
| Tb927.10.14190 (a homologue of Epl1) (from UniProt Q388I3) | – | – | binds | binds | – | – |
| TbARP2 (Tb927.6.2570) (from UniProt Q584P9) | binds | binds | – | – | binds | – |
| TbARP3 (Tb927.10.2000) (from UniProt Q38C43) | binds | binds | – | – | binds | – |
| TbSWR1 (Tb927.11.10730) (from UniProt Q383K6) (enzyme) | binds | binds | – | – | binds | – |
| TbSWRC2 (Tb927.11.5830) (from UniProt Q385I5) | – | binds | – | – | binds | – |
| TbSWRC3 (Tb927.9.8510) (from UniProt Q38EC0) | binds | binds | – | – | – | – |
| TbSWRC4 (Tb927.7.4040) (from UniProt Q57UN4) | binds | – | – | – | binds | – |
| TbSWRC5 (Tb927.8.600) (from UniProt Q57YH0) | binds | binds | – | – | binds | – |
| TbSWRC6 (Tb927.11.6290) (from UniProt Q385E0) | binds | binds | – | – | binds | – |
| Tb927.1.650 (an Eaf3/MORF4 homologue) (protein, UniProt Q4GZG2 1-199) MDEIKWPLRLLQILRNHLEQVDHPHEPRTLPIAAKCGQGGVLAFLTDVDDDVRRRTGASECITACCRGLVLDMIEQCCTLLFLSSKERRVINMAAVQREKRVVARGVGKRRRGDQGETTEETAIGETDNSQRKCAAVLPLEYLLRLFVALPSLLAHYDKLGGSTMPAAFKQPLWNYVNAVLDIMKDMTFLDPSEYIPLR | – | – | – | – | – | binding [7]: binds |

Now from value to molecule, other results behind:

| binding [1] | binding [2] | binding [4] | binding [5] | binding [6] | Molecule | other results |
| --- | --- | --- | --- | --- | --- | --- |
| – | – | binds | binds | – | HAT1 (Tb927.7.4560) (from UniProt D6XIY7) (enzyme) | – |
| – | – | no binding | binds | – | Tb927.6.1240 (from UniProt Q585C3) | – |
| – | – | binds | binds | – | Tb927.7.5310 (a Yaf9/GAS41 homologue) (from UniProt Q57ZF8) | – |
| – | – | no binding | binds | – | Tb927.10.9930 (from UniProt Q389Y3) | – |
| binds | binds | – | – | binds | TbARP1 (Tb927.3.3020) (from UniProt Q57ZL0) | – |
